Measured values as given in the supplement of paper PMC10735217.
Counter-ions that a name gives are not always drawn. The list shows a part of the results. Repeats in this data set agree poorly, so a single value says little.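 The human kidney-derived cells carry a stably integrated construct of eight TEAD-binding elements driving luciferase, read by luminescence in a drug-repurposing library screen. A compound counts as a hit when its signal is more than five robust Z scores above the plate mean.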

System: HEK293A TEAD-LUC reporter
Experiment: TEAD-luciferase reporter activity (YAP activation), robust Z score vs plate; higher = stronger YAP/TEAD activation
Settings: 24 h

SMILES	TEAD-luciferase reporter activity (compound concentration: 200 nM)	TEAD-luciferase reporter activity (compound concentration: 2 uM)	TEAD-luciferase reporter activity (compound concentration: 10 uM)
CC(C)n1c(=O)c2c(-c3noc(C4CC4)n3)ncn2c2ccccc21	inactive: 1.18	inactive: -0.677	inactive: -0.323
O=C(c1ccccc1)N1CCC(N2CCCC2=O)CC1	inactive: 1.44		inactive: 1.5
CCc1cc(N2CCC(N)C2)nc(N)n1 (centres undefined)	inactive: -0.206	inactive: 0.727	active: 5.89
CC(=O)[C@@]1(O)[C@H](O)C[C@H]2[C@@H]3CCC4=CC(=O)CC[C@]4(C)[C@H]3CC[C@@]21C	inactive: -1	inactive: 0.132	inactive: 0.904
CC1(C)CCC(C)(C)c2cc(C#Cc3ccc(C(=O)O)cc3)ccc21	inactive: 1.15	inactive: -1.14	inactive: 1.04
C=CCc1cc(OC)c(O)c(C(=O)NCCO)c1	inactive: -2.31	inactive: 0.291	inactive: -0.144
CCCc1ccc(NS(=O)(=O)Cc2ccccc2)c(=O)n1CC(=O)NCc1cccc(OC)c1	inactive: 1.26	inactive: 0.343	inactive: -0.118
COc1cc2c(Oc3ccc4[nH]c(C)cc4c3F)ccnc2cc1OCC1(N)CC1 [Anlotinib dihydrochloride]	inactive: -0.108	inactive: -0.813	inactive: -1.79
c1cc(OCCCN2CCCCC2)ccc1CN1CCCCC1	inactive: -0.424	inactive: 0.67	inactive: -0.549
CC(=O)N1CC2(CCN(C(=O)c3ccc(Cl)cc3)CC2)Cc2ccccc21	inactive: -1.13		inactive: -1.18
CN1C[C@@H]2[C@H](C1)[C@H]2CN(Cc1ccc(F)c(Cl)c1)C(=O)c1cn(C)cn1	inactive: -1.35	inactive: -0.354	inactive: 4.04
N#CN/C(=N\CCO[N+](=O)[O-])c1cccnc1	inactive: -0.707	inactive: -0.559	inactive: -1.57
NC(=O)C(c1ccccc1)(c1ccc(F)cc1)c1ccc(F)cc1 [senicapoc]	inactive: -1.43	inactive: -0.999	inactive: -1.19
CC(C)Oc1ncc(-c2nc(-c3cccc4c3ccn4CCCC(=O)O)no2)cc1Cl	inactive: -1.02	inactive: -0.685	active: 5.23
CC(=O)NCC1(c2ccccc2)CCN(C[C@@H]2COc3ccccc3O2)CC1	inactive: -0.46	inactive: -0.125	inactive: -0.508
C[n+]1ccc(SCC2=C(C(=O)O)N3C(=O)[C@H](NC(=O)/C(=N/OC(C)(C)C(=O)[O-])c4csc(N)n4)[C@@H]3S(=O)C2)cc1 (some centres undefined)	inactive: -0.939	inactive: -0.125	inactive: -0.707
CO[C@H]1C[C@@H]2CC[C@@H](C)[C@@](O)(O2)C(=O)C(=O)N2CCCC[C@H]2C(=O)O[C@H]([C@H](C)C[C@H]2CC[C@@H](OP(C)(C)=O)[C@H](OC)C2)CC(=O)[C@H](C)/C=C(\C)[C@@H](O)[C@@H](OC)C(=O)[C@H](C)C[C@H](C)/C=C/C=C/C=C/1C [Deforolimus]	inactive: -0.194	inactive: 0.379	inactive: 4.91
CC(COc1ccccc1)N(C)CCOC(c1ccccc1)c1ccccc1 (centres undefined) [prenoverine]	inactive: -1.17	inactive: -0.295	inactive: -0.749
Cc1onc(-c2ccccc2)c1C(=O)N[C@@H]1C(=O)N2[C@@H]1SC(C)(C)[C@@H]2C(=O)O [Oxacillin sodium monohydrate]	inactive: 0.168	inactive: 0.234	inactive: 0.434

SMILES	TEAD-luciferase reporter activity (compound concentration: 200 nM)	TEAD-luciferase reporter activity (compound concentration: 2 uM)	TEAD-luciferase reporter activity (compound concentration: 10 uM)
CCCCCCCCOCCOC(=O)CN(CC(=O)O)c1ccccc1OCCOc1ccccc1N(CC(=O)O)CC(=O)OCCOCCCCCCCC	active: 5.25	inactive: -1.18	inactive: -1.67
COc1ccc(C(=O)N2Cc3ccccc3CC23CCCN(C(=O)CCN)C3)cc1 (centres undefined)	inactive: -0.347		inactive: 3.24
CC(C)NCC(O)COc1ccc(CCOCC2CC2)cc1 (centres undefined) [betaxolol, ophthalmic]		inactive: -1.4	
CC(C)NCC(O)COc1ccc(CCOCC2CC2)cc1 (centres undefined)	inactive: -2.19		active: 7.47
C=CCCCCCCCCC(=O)OCCC1CCN(CCCN2c3ccccc3Sc3ccc(S(=O)(=O)N(C)C)cc32)CC1	inactive: -1.3	inactive: 0.671	inactive: -0.253
CC(=O)OCC[N+](C)(C)C [Miochol]	inactive: -1.08		inactive: 0.0117
CC(=O)OCC[N+](C)(C)C		inactive: -0.229	
Cn1nnnc1SCC1=C(C(=O)O)N2C(=O)[C@@H](NC(=O)/C(=N/OCC(=O)O)c3ccn[nH]3)[C@H]2SC1	inactive: -0.00218	inactive: -0.971	inactive: 0.895
Nc1nc2c(ncn2OCCCO)c(=O)[nH]1	inactive: -0.726	inactive: -0.246	inactive: -0.816
O=C(O)CCC/C=C\C[C@@H]1CO[C@H](C(F)(F)F)O[C@@H]1c1ccccc1O	inactive: -2.38	inactive: 0.268	inactive: -1.01
CCn1cnc(C(=O)NC)c1C(=O)NC [Ethimizol]	inactive: 0.377	inactive: 2.08	inactive: 0.272
CC(NC(=O)C(CS)C(C)c1ccccc1)C(=O)O (single isomer, unassigned) [unknown stereoisomer of RB-105]		inactive: 0.597	
CC(=O)OC[C@H](N)C(=O)O [Thromboxol]	inactive: -1.23	inactive: -1.67	inactive: 0.459
CNCCC(c1cccc(F)c1)c1cccc(F)c1 [delucemine hydrochloride]	inactive: 0.692	inactive: 0.762	inactive: 0.134
CN1CCN(c2nccn(CCOc3cc(F)c(F)cc3F)c2=O)CC1	inactive: 0.998	inactive: -0.689	inactive: -1.44
O=C([O][Cr]([O]C(=O)c1ccccn1)[O]C(=O)c1ccccn1)c1ccccn1 [Chromium picolinate]	inactive: 0.466	inactive: -1.26	inactive: 0.875
CC(=O)c1ccc2c(c1)[C@H](NC(=O)c1ccc(F)c(Cl)c1)[C@H](O)C(C)(C)O2 [tonabersat]	inactive: 0.198	inactive: -1.31	inactive: 0.785
O=C(O)COCCN1CCN(C(c2ccccc2)c2ccc(F)cc2)CC1 (centres undefined)	inactive: -0.531	inactive: 0.747	inactive: 0.346
COC(=O)N(C)c1c(N)nc(-c2nn(Cc3ccccc3F)c3ncccc23)nc1N [Riociguat]	inactive: -0.901		inactive: -1.03

SMILES	TEAD-luciferase reporter activity (compound concentration: 200 nM)	TEAD-luciferase reporter activity (compound concentration: 2 uM)	TEAD-luciferase reporter activity (compound concentration: 10 uM)
COC(=O)N(C)c1c(N)nc(-c2nn(Cc3ccccc3F)c3ncccc23)nc1N [riociguat]		inactive: 0.936	
COc1ccc2c(O[C@@H]3C[C@H]4C(=O)N[C@]5(C(=O)NS(=O)(=O)C6CC6)C[C@H]5/C=C\CCCCN(C)C(=O)[C@@H]4C3)cc(-c3nc(C(C)C)cs3)nc2c1C [Simeprevir]	inactive: -0.511	inactive: -1.3	inactive: -0.14
CC(C)(Oc1ccc(C2CC2(Cl)Cl)cc1)C(=O)O (centres undefined) [ciprofibrate]	inactive: -0.233	inactive: -0.503	inactive: 0.131
CCOC(=O)c1ccc(O)cc1	inactive: 0.312	inactive: -2.23	inactive: -1.63
CCCCSc1nc(C)c(CC(=O)O)s1	inactive: 0.197	inactive: 3.03	inactive: -1.65
O=c1ccn(CCO)c(C(O)c2ccccc2)c1O (centres undefined)	inactive: 0.481	inactive: -1.5	inactive: -0.879
COCCOCOc1ccc(C(=O)/C=C/c2ccc(C(=O)O)cc2)cc1C12CC3CC(CC(C3)C1)C2	inactive: 2.16	inactive: 4.65	inactive: 0.361
CC[N+](C)(CC)CCOC(=O)C(O)(c1ccccc1)C1CCCCC1 (centres undefined)	inactive: 0.0633	inactive: 0.184	inactive: -1.36
CCCCCCCCCCCCCCCC(=O)OC[C@H](O)[C@H]1OC(=O)C(=O)C1O (some centres undefined)	inactive: 1.18	inactive: -0.693	inactive: 2.69
Cn1cc(-c2ccncc2)c(-c2ccc(OCc3ccc4ccccc4n3)cc2)n1	inactive: 0.865	inactive: -1.73	inactive: 1.16
Cc1ccc(O)c(-c2cc(-c3ccccc3)[nH]n2)c1	inactive: 2.05	active: 5.44	inactive: 2.07
CCC(C)(C)NC(=N)NC#N [Guancidine]	inactive: -1.93	inactive: -0.595	inactive: -0.921
c1ccc2c(c1)Sc1ccccc1N2CCN1CCCC1	inactive: -0.681	inactive: 0.0758	inactive: 4.7
Cc1cc(OCC2CCN(C(=N)N)CC2)cc(OS(=O)(=O)c2ccccc2Cl)c1 [thrombin inhibitors, 3-D]	inactive: -1.47	inactive: -1.15	inactive: 1.74
Nc1ncnc2c1ncn2C1OC(CO)C(O)C1O (centres undefined) [Adenoscan]	inactive: -0.204	inactive: -2.26	inactive: -1.62
OCC1OC(n2cnc3c(S)ncnc32)C(O)C1O (centres undefined)	inactive: 1.03	inactive: 0.337	inactive: 1.73
CCOc1ccc2ccccc2c1C(=O)N[C@@H]1C(=O)N2[C@@H]1SC(C)(C)[C@@H]2C(=O)O [Nafcillin sodium]	inactive: 0.109	inactive: 0.0399	active: 7.08
CC1=CCCC(C)(C)C12CCC(C)O2 (centres undefined)	inactive: -0.492	inactive: -0.299	inactive: -1.45

Limited to TEAD-luciferase reporter activity (compound concentration: 10 uM) (three entries from above):
SMILES | TEAD-luciferase reporter activity (compound concentration: 10 uM)
CCc1cc(N2CCC(N)C2)nc(N)n1 (centres undefined) | active: 5.89
CC(=O)[C@@]1(O)[C@H](O)C[C@H]2[C@@H]3CCC4=CC(=O)CC[C@]4(C)[C@H]3CC[C@@]21C | inactive: 0.904
CC1(C)CCC(C)(C)c2cc(C#Cc3ccc(C(=O)O)cc3)ccc21 | inactive: 1.04
